The supplement of paper PMC10735217
Structures can show the parent of a compound that is named as a salt. This is one part of the list. Repeats in this data set agree poorly, so a single value says little.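 The human kidney-derived cells carry a stably integrated construct of eight TEAD-binding elements driving luciferase, read by luminescence in a drug-repurposing library screen. A compound counts as a hit when its signal is more than five robust Z scores above the plate mean.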

System: HEK293A TEAD-LUC reporter
Test: TEAD-luciferase reporter activity (YAP activation), robust Z score vs plate; higher = stronger YAP/TEAD activation
Settings: 24 h

SMILES	TEAD-luciferase reporter activity (compound concentration: 200 nM)	TEAD-luciferase reporter activity (compound concentration: 2 uM)	TEAD-luciferase reporter activity (compound concentration: 10 uM)
CC(=O)N(CC(O)CO)c1c(I)c(C(=O)NCC(O)CO)c(I)c(C(=O)NCC(O)CO)c1I (stereo not drawn) [iohexol]	inactive: -1.3	inactive: -0.833	inactive: 0.725
Clc1ccc(Oc2cccc(-c3nc4ccccc4n3CCN3CCCCC3)c2)cc1Cl	inactive: 0.505	inactive: -0.355	inactive: -1.5
Cc1c[nH]c2ncnc(N3CCC(CN)(C(=O)Nc4cccc(OC(=O)N(C)C)c4)CC3)c12	inactive: 0.551	inactive: 0.993	inactive: 1.28
COc1cc(C(C)C)c2c(c1)S(=O)(=O)N(COC(=O)c1c(Cl)ccc(OCCN3CCOCC3)c1Cl)C2=O	inactive: 1.45	inactive: -1.01	inactive: -1.5
Cc1nc(=O)c2c([nH]1)CCSC2	inactive: 2.69	inactive: -1.55	inactive: 0.344
CC1(C)O[C@@H]2C[C@H]3[C@@H]4C[C@H](F)C5=CC(=O)C=CC5(C)[C@H]4[C@@H](O)CC3(C)C2(C(=O)CO)O1 (stereo partly drawn) [Flunisolide]	inactive: 1.49	inactive: -1.13	inactive: 1.81
[Cl][Zn][Cl] [Zinc Chloride]	inactive: 2.23	–	inactive: 0.352
CN(C)CCOc1ccccc1-c1nc(-c2ccccc2)no1 [irampanel hydrochloride]	inactive: -1.06	inactive: -1.33	inactive: 0.842
Cc1cc(Nc2ncnc3ccc(NC4=NC(C)(C)CO4)cc23)ccc1Oc1ccn2ncnc2c1 [Irbinitinib]	inactive: -1.94	inactive: -1.49	inactive: 1.18
COC1=CC(c2cc3ccccc3[nH]2)=N/C1=C\c1[nH]c(C)cc1C [obatoclax]	inactive: -0.646	inactive: -1.88	inactive: 0.0919
CCCN1CCC(c2cccc(S(C)(=O)=O)c2)CC1 [pridopidine]	inactive: -3.15	inactive: -0.886	inactive: 1.64
COc1ccc(NC(=O)CCC(=O)NCCc2ccccc2)cc1	inactive: -1.31	inactive: -1.76	inactive: 2.82
CNCCC(Oc1cccc2c1OCO2)c1cccs1 (stereo not drawn) [Ammuxetine]	inactive: 1.51	inactive: -0.206	inactive: -0.678
O=C(O)CC[C@@H](NC(=O)c1cc(Cl)cc(Cl)c1)C(=O)N1CCC2(CCCC2)CC1	inactive: -0.745	inactive: -0.0805	inactive: -0.993
CCOC(=O)C(=O)Nc1cc(C)c(Oc2ccc(O)c(C(O)c3ccc(F)cc3)c2)c(C)c1 (stereo not drawn) [Axitirome]	inactive: -1.63	inactive: 0.436	inactive: 0.782
COc1ccc([C@@H]2Sc3c(ccc4ccccc34)N(CCN(C)C)C(=O)[C@@H]2OC(C)=O)cc1	inactive: -2.79	inactive: -0.204	inactive: -1.17
CCOC(=O)Cc1ccc(-c2ccccc2)cc1	inactive: 0.00863	inactive: -1.29	inactive: -0.605
COc1ccc(/C=C/NC=O)cc1 [(E)-N-(4-methoxystyryl)formamide]	inactive: -0.248	inactive: 0.782	inactive: 0.718
CCCCC[C@H](O)/C=C/[C@H]1CCC(=O)[C@@H]1CCCCCCC(=O)O	inactive: -0.947	inactive: 2.3	inactive: -1.19
CC(=O)Oc1ccccc1C(=O)SCCC(=O)NCC(=O)O	inactive: -0.0892	inactive: 0.623	inactive: -0.704
O=C(c1ccc(/C=C/c2n[nH]c3ccccc23)cc1)N1CCNCC1	inactive: 2.18	inactive: 3.96	active: 5.27
CCC(C(=O)OCCN1CCOC(c2ccccc2)C1C)c1ccccc1 (stereo not drawn)	inactive: -0.833	inactive: 0.778	inactive: 0.682
CO[C@H]1C[C@@H]2CC[C@@H](C)[C@@](O)(O2)C(=O)C(=O)N2CCCC[C@H]2C(=O)O[C@H]([C@H](C)C[C@@H]2CC[C@H](n3cnnn3)[C@H](OC)C2)CC(=O)[C@H](C)/C=C(\C)[C@@H](O)[C@@H](OC)C(=O)[C@H](C)C[C@H](C)/C=C/C=C/C=C/1C [Zotarolimus]	active: 5.96	inactive: -0.543	inactive: 4.95
NC(N)=Nc1nc(CSCC/C(N)=N/S(N)(=O)=O)cs1 [Famotidine]	inactive: -2.04	–	inactive: 2.74
NC(N)=Nc1nc(CSCC/C(N)=N/S(N)(=O)=O)cs1 [famotidine]	–	inactive: -0.221	–
COc1cc(C)ccc1OCC(=O)N1CCC(C)Sc2ccccc21 (stereo not drawn)	inactive: -1.21	inactive: -1.11	inactive: 0.883
CN1C(C(=O)Nc2ccccn2)=C(O)c2sccc2S1(=O)=O [Tenoxicam]	inactive: 0.572	inactive: -0.682	inactive: 2.88

Single records (already shown):
COC1=CC(c2cc3ccccc3[nH]2)=N/C1=C\c1[nH]c(C)cc1C [obatoclax] is listed as TEAD-luciferase reporter activity (compound concentration: 200 nM): inactive: -0.646; TEAD-luciferase reporter activity (compound concentration: 2 uM): inactive: -1.88; TEAD-luciferase reporter activity (compound concentration: 10 uM): inactive: 0.0919
Cc1cc(Nc2ncnc3ccc(NC4=NC(C)(C)CO4)cc23)ccc1Oc1ccn2ncnc2c1 [Irbinitinib] is listed as TEAD-luciferase reporter activity (compound concentration: 200 nM): inactive: -1.94; TEAD-luciferase reporter activity (compound concentration: 2 uM): inactive: -1.49; TEAD-luciferase reporter activity (compound concentration: 10 uM): inactive: 1.18
CC1(C)O[C@@H]2C[C@H]3[C@@H]4C[C@H](F)C5=CC(=O)C=CC5(C)[C@H]4[C@@H](O)CC3(C)C2(C(=O)CO)O1 (stereo partly drawn) [Flunisolide] is listed as TEAD-luciferase reporter activity (compound concentration: 200 nM): inactive: 1.49; TEAD-luciferase reporter activity (compound concentration: 2 uM): inactive: -1.13; TEAD-luciferase reporter activity (compound concentration: 10 uM): inactive: 1.81

Continued:

SMILES	TEAD-luciferase reporter activity (compound concentration: 200 nM)	TEAD-luciferase reporter activity (compound concentration: 2 uM)	TEAD-luciferase reporter activity (compound concentration: 10 uM)
CC(C)(C)C1CCC(CC2=C(O)C(=O)c3ccccc3C2=O)CC1 (stereo not drawn) [Buparvaquone]	inactive: -0.686	inactive: -0.569	inactive: -0.247
O=C1N=C(N2CCOCC2)CN1c1ccc(Cl)cc1	inactive: -0.428	inactive: 3.58	inactive: -1.53
COc1ccc(CC(=O)N2CCC(C(=O)N3CCC(N4CCCC4=O)CC3)CC2)cc1	inactive: -0.45	–	inactive: 0.169
C[C@H](C(=O)N1Cc2ccccc2CC2(CCCN2C)C1)c1ccccc1 (stereo partly drawn)	inactive: -2.51	–	inactive: 4.71
C[C@H](O)C(=O)N1CCC(CCn2c(Sc3cc4c(cc3Br)OCO4)nc3c(N)ncnc32)CC1	inactive: -1.48	inactive: -0.193	inactive: -0.491
CCC[C@H](N)C(=O)NC1CCN(c2c(F)cc3c(=O)c(C(=O)O)cn4c3c2Oc2ccccc2-4)C1 (stereo partly drawn)	inactive: -0.101	inactive: 1.97	inactive: -1.28
CN(CCc1ccccc1)C(=O)Cc1cc(C(=O)O)cc2c(OCc3ccccc3)cccc12	inactive: -0.624	inactive: -0.198	inactive: -0.801
O=C1NC(=O)C(Cc2ccc3c(c2)CCC(Cc2ccccc2)O3)S1 (stereo not drawn) [Englitazone]	inactive: -0.271	inactive: -0.664	inactive: -0.522
CC1OC1P(=O)([O-])[O-] (stereo not drawn) [fosfomycin disodium]	–	inactive: -0.415	–
CC1OC1P(=O)([O-])[O-] (stereo not drawn) [Phosphomycin disodium]	inactive: 0.45	–	inactive: 1.97
O=C(Nc1ccc(F)cc1)C1CN(C2CCCCC2)C(=O)N1 (stereo not drawn)	inactive: 0.113	–	inactive: 0.142
COc1ccc(C(=O)N2CCc3c([nH]c4ccccc34)C2c2ccc(Cl)cc2)cc1 (stereo not drawn)	inactive: -1.03	inactive: -0.677	inactive: -0.466
COC(=O)N1CCC(CN2CCC(CNC(=O)c3cccc4[nH]c(C(C)C)nc34)CC2)CC1	inactive: 1.36	inactive: 0.549	inactive: 2.08
O=C(NOCCO)c1ccc2cncn2c1Nc1ccc(I)cc1F	inactive: -0.135	inactive: -0.584	inactive: -2.28
CC(C)CN(C[C@H](O)[C@H](Cc1ccccc1)NC(=O)[C@@H](NC(=O)CNCc1cccc(F)c1)C(C)(C)C)S(=O)(=O)c1cccc(N)c1	inactive: 0.744	inactive: 1.26	inactive: 0.979
O=C(O[C@H]1CN2CCC1CC2)N1CCc2ccccc2[C@@H]1c1ccccc1 [solifenacin succinate, ODT]	inactive: -0.681	inactive: -0.492	inactive: 3.07
COCCN1CCC(N(Cc2ccc(-c3ccc(C(F)(F)F)cc3)cc2)C(=O)Cn2c(CCc3cccc(F)c3F)cc(=O)c3cccnc32)CC1	inactive: -0.954	inactive: -2.05	inactive: -0.535
O=C(C1CCCC1)N1Cc2ccccc2CC2(CCCCN2CC2CCNCC2)C1 (stereo not drawn)	inactive: 2.26	–	inactive: 2.89
C=CC[N+]1([C@H]2C[C@H]3[C@@H]4CC[C@H]5C[C@H](OC(C)=O)[C@@H](N6CCCCC6)C[C@]5(C)[C@H]4CC[C@]3(C)[C@H]2OC(=O)CC)CCCCC1 [rapacuronium bromide]	inactive: 0.171	inactive: -1.74	inactive: 2.17
O=C(O)COc1ccc(C(=O)c2cccs2)c(Cl)c1Cl [tienilic acid]	inactive: -0.48	inactive: -1.64	inactive: 2.25
N#CC1CCN(CCc2ccc3c(c2)CCO3)CC1	inactive: 0.429	inactive: -1.79	inactive: 2.63
CN1CCC(=C2c3ccccc3Oc3ncccc32)CC1	inactive: -0.387	inactive: 1.86	inactive: -1.07
O=C(C1CC[C@H](CC1)CNC(=N)N)Oc1ccc(cc1)C(C)(C)C (stereo not drawn)	inactive: -0.574	inactive: -0.65	inactive: 3.44
O=C1c2ccc(O)cc2OCC1c1ccc(O)cc1 (stereo not drawn)	inactive: 0.0143	inactive: -0.443	inactive: -0.688
COc1ccc2c(c1)c(CC(=O)OCC(C(=O)O)c1ccccc1)c(C)n2C(=O)c1ccc(Cl)cc1 (stereo not drawn) [tropine indometacinate]	–	inactive: -0.855	–
COc1ccc2c(c1)c(CC(=O)OCC(C(=O)O)c1ccccc1)c(C)n2C(=O)c1ccc(Cl)cc1 (stereo not drawn) [tropine indometacinate, Spofa]	inactive: -0.64	–	inactive: 1.39
O=C1Nc2ccc(Cl)cc2[C@](/C=C/C2CC2)(C(F)(F)F)N1	inactive: 0.0755	inactive: -0.33	inactive: 1.41
